Measured values as given in PubChem BioAssay AID248 (DTP/NCI, 2004).
The list does not hold the whole screen: it gathers tests that were run many times, whatever their T/C, doses with no T/C, and many T/C values between a quarter and a half above the control. Other doses and runs of a compound stand elsewhere. T/C gives the treated animals as a percentage of the vehicle group. Some doses have a count of surviving animals in place of a T/C: the source holds a T/C of zero for them, seemingly a mark for toxic or unscored doses. Some survivor counts are full or nearly so, which does not show that the dose was tolerated: the source hardly ever lists a survival T/C far under the control, and the zero likely stands for such cases as well. Survivors were counted at the toxicity check, usually on the fifth day, unless a day is given; later deaths do not show. Schedule codes are those of the source, taken here to give the interval after Q, in days (D) or hours (H), and the number of doses after X. Some molecules as drawn cover several salts, stereoisomers or complexes of the source; a dose is that of the sample tested. Some entries were tested several times; their values stand side by side, smallest first. Signs of the kind (2×) give the number of equal values in this list. For survival time, this PubChem deposit counts one and a half times the control or more as active, and values a quarter to a half above the control carry no call in these data; other NCI protocols may use other cut-offs. Some schedules carry Z or #; the key to these is not given. Some T/C values are followed by the survivors on the day toxicity was checked, most often the fifth; without a count, all were alive then.

System: L1210 leukemia ip in BDF1 mice, survival T/C
Experiment: NCI In Vivo Anticancer Drug Screen. Data for tumor model L1210 Leukemia (intraperitoneal) in B6D2F1 (BDF1) mice
Details: T/C endpoint: mean survival time, higher T/C = longer survival
[1] = dose: 400.0 mg/kg/injection, schedule: Q01DX001 (ip), vehicle: saline
[2] = dose: 200.0 mg/kg/injection, schedule: Q04DX003 (ip), vehicle: Klucel (hydroxypropylcellulose) (HPC)
[3] = dose: 400.0 mg/kg/injection, schedule: Q04DX003 (ip), vehicle: Klucel (hydroxypropylcellulose) (HPC)
[4] = dose: 200.0 mg/kg/injection, schedule: Q01DX009 (ip), vehicle: Klucel (hydroxypropylcellulose) (HPC)
[5] = dose: 400.0 mg/kg/injection, schedule: Q01DX009 (ip), vehicle: Klucel (hydroxypropylcellulose) (HPC)
[6] = dose: 400.0 mg/kg/injection, schedule: Q04DX002 (ip), vehicle: Klucel (hydroxypropylcellulose) (HPC)

For S=c1cc(-c2ccc(Cl)cc2)ss1, which survivor count (dose: 400.0 mg/kg/injection, schedule: Q04DX003 (ip), vehicle: saline) is on record?
Its survivor count is 6 of 6.

[O-]/[N+](=N/O)c1ccccc1 was tested. Which survivor count (dose: 200.0 mg/kg/injection, schedule: Q01DX001 (ip), vehicle: saline) did it give?
The survivor count was 1 of 6.

What about the survivor count [1] of the same compound?
The survivor count was 0 of 6.

For Cc1cc(N(CCOS(C)(=O)=O)CCOS(C)(=O)=O)ccc1C=Nc1ccc(-c2csc(-c3ccccc3)n2)c(Cl)c1, which T/C (dose: 26.6 mg/kg/injection, schedule: Q04DX003 (ip), vehicle: Klucel (hydroxypropylcellulose) (HPC)) is on record?
Its T/C is 125 % of control.

What about the T/C (dose: 40.0 mg/kg/injection, schedule: Q04DX003 (ip), vehicle: Klucel (hydroxypropylcellulose) (HPC)) of the same compound?
The T/C was 127 and 136 % of control.

And the survivor count [2]?
Its survivor count is 6 of 6.

What about the survivor count [3] of the same compound?
The survivor count was 6 of 6.

For Cc1nnc2c([N+](=O)[O-])cccn12, which survivor count [1] is on record?
Its survivor count is 0 of 6.

For Cc1ccc(C)c(NC(=O)c2ccc(Cl)c(Cl)c2)c1, which survivor count (dose: 12.5 mg/kg/injection, schedule: Q01DX009 (ip), vehicle: Klucel (hydroxypropylcellulose) (HPC)) is on record?
Its survivor count is 6 of 6.

What about the survivor count (dose: 25.0 mg/kg/injection, schedule: Q01DX009 (ip), vehicle: Klucel (hydroxypropylcellulose) (HPC)) of the same compound?
Its survivor count is 6 of 6.

And the survivor count (dose: 100.0 mg/kg/injection, schedule: Q01DX009 (ip), vehicle: Klucel (hydroxypropylcellulose) (HPC))?
The survivor count was 6 of 6.

What about the survivor count [4] of the same compound?
Its survivor count is 6 of 6.

How did the survivor count (dose: 100.0 mg/kg/injection, schedule: Q04DX003 (ip), vehicle: saline) turn out when Cc1c(O)cccc1N(C)C was run?
Its survivor count is 6 of 6.

With CN(C)c1ccc(C(C#N)(c2ccc(N(C)C)cc2)c2ccc(N(C)C)cc2)cc1 as the compound, how does the survivor count [5] read?
The survivor count was 5 of 6.

O=C(NC(C(=O)c1ccccc1)c1ccccc1)c1ccccc1 (stereo not drawn) was tested. Which survivor count [4] did it give?
The survivor count was 6 of 6.

How did the survivor count [6] turn out when Cc1ccc(NC(C(=O)O)c2ccccc2)cc1 (stereo not drawn) was run?
The survivor count was 1 of 3.

How did the survivor count [2] turn out when CC1CCCCN1P(=[Se])(c1ccccc1)N1CCCCC1C (stereo not drawn) was run?
Its survivor count is 2 of 6.

And the survivor count [3]?
The survivor count was 0 of 6.

How did the survivor count (dose: 6.25 mg/kg/injection, schedule: Q01DX001 (ip), vehicle: Klucel (hydroxypropylcellulose) (HPC)) turn out when O=C(CCl)c1ccc([N+](=O)[O-])o1 was run?
The survivor count was 3 of 6.

What about the survivor count (dose: 12.5 mg/kg/injection, schedule: Q01DX001 (ip), vehicle: Klucel (hydroxypropylcellulose) (HPC)) of the same compound?
Its survivor count is 0 of 6.

What about the survivor count (dose: 25.0 mg/kg/injection, schedule: Q01DX001 (ip), vehicle: Klucel (hydroxypropylcellulose) (HPC)) of the same compound?
The survivor count was 0 of 6 and 1 of 6.

And the survivor count (dose: 50.0 mg/kg/injection, schedule: Q01DX001 (ip), vehicle: Klucel (hydroxypropylcellulose) (HPC))?
The survivor count was 0 of 6.

And the survivor count (dose: 100.0 mg/kg/injection, schedule: Q01DX001 (ip), vehicle: Klucel (hydroxypropylcellulose) (HPC))?
Its survivor count is 0 of 6.

What about the survivor count (dose: 200.0 mg/kg/injection, schedule: Q01DX001 (ip), vehicle: Klucel (hydroxypropylcellulose) (HPC)) of the same compound?
Its survivor count is 0 of 6.

What about the survivor count (dose: 400.0 mg/kg/injection, schedule: Q01DX001 (ip), vehicle: Klucel (hydroxypropylcellulose) (HPC)) of the same compound?
The survivor count was 0 of 6.

For COc1ccc(C(=O)O)c(CC#N)c1, which survivor count [3] is on record?
Its survivor count is 6 of 6.

Which results are given for CCC1(O)CC2CN(CCc3c([nH]c4ccccc34)C(C(=O)OC)(c3cc4c(cc3OC)N(C)C3C(O)(C(=O)NCCO)C(O)C5(CC)C=CCN6CCC43C65)C2)C1 (stereo not drawn)?
T/C (dose: 0.26 mg/kg/injection, schedule: Q01DX009 (ip), vehicle: saline): 130 % of control; T/C (dose: 0.43 mg/kg/injection, schedule: Q01DX009 (ip), vehicle: saline): 148 % of control; T/C (dose: 0.65 mg/kg/injection, schedule: Q04DX003 (ip), vehicle: saline): 127 % of control; T/C (dose: 0.72 mg/kg/injection, schedule: Q01DX009 (ip), vehicle: saline): 138 % of control; T/C (dose: 1.08 mg/kg/injection, schedule: Q04DX003 (ip), vehicle: saline): 132 % of control; T/C (dose: 1.8 mg/kg/injection, schedule: Q04DX003 (ip), vehicle: saline): 145 % of control; T/C (dose: 3.0 mg/kg/injection, schedule: Q04DX003 (ip), vehicle: saline): 134 % of control [7 of 8 alive]; T/C (dose: 1800.0 micrograms/kg/injection, schedule: Q04DX003 (ip), vehicle: saline): 138 % of control; T/C (dose: 3000.0 micrograms/kg/injection, schedule: Q04DX003 (ip), vehicle: saline): 140 % of control

Which results are given for C=CC(=O)N1CCN(C(=O)C=C)CC1 (tested in a mixture with another compound)?
survivor count (dose: 0.04 mg/kg/injection, schedule: Q04DX002 (ip), vehicle: saline): 0 of 3; survivor count (dose: 0.09 mg/kg/injection, schedule: Q04DX002 (ip), vehicle: saline): 0 of 3; survivor count (dose: 0.18 mg/kg/injection, schedule: Q04DX002 (ip), vehicle: saline): 0 of 3 and 3 of 3; survivor count (dose: 0.37 mg/kg/injection, schedule: Q04DX002 (ip), vehicle: saline): 0 of 3 (2×); survivor count (dose: 0.75 mg/kg/injection, schedule: Q04DX002 (ip), vehicle: saline): 0 of 3 (2×); survivor count (dose: 1.5 mg/kg/injection, schedule: Q04DX002 (ip), vehicle: saline): 0 of 3 (2×); survivor count (dose: 3.1 mg/kg/injection, schedule: Q04DX002 (ip), vehicle: saline): 0 of 3 (2×) and 1 of 3; survivor count (dose: 3.12 mg/kg/injection, schedule: Q04DX002 (ip), vehicle: saline): 0 of 3; survivor count (dose: 6.25 mg/kg/injection, schedule: Q04DX002 (ip), vehicle: saline): 0 of 3 (3×); survivor count (dose: 12.5 mg/kg/injection, schedule: Q04DX002 (ip), vehicle: saline): 0 of 3 (3×); survivor count (dose: 25.0 mg/kg/injection, schedule: Q04DX002 (ip), vehicle: saline): 0 of 3 (3×); survivor count (dose: 50.0 mg/kg/injection, schedule: Q04DX002 (ip), vehicle: saline + alcohol): 0 of 3; survivor count (dose: 50.0 mg/kg/injection, schedule: Q04DX002 (ip), vehicle: saline): 0 of 3 (4×); survivor count (dose: 100.0 mg/kg/injection, schedule: Q04DX002 (ip), vehicle: Klucel (hydroxypropylcellulose) (HPC)): 0 of 3; survivor count (dose: 100.0 mg/kg/injection, schedule: Q04DX002 (ip), vehicle: saline + alcohol): 0 of 3; survivor count (dose: 100.0 mg/kg/injection, schedule: Q04DX002 (ip), vehicle: saline): 0 of 3 (3×) and 1 of 3; survivor count (dose: 200.0 mg/kg/injection, schedule: Q04DX002 (ip), vehicle: Klucel (hydroxypropylcellulose) (HPC)): 0 of 3; survivor count (dose: 200.0 mg/kg/injection, schedule: Q04DX002 (ip), vehicle: saline + alcohol): 0 of 3; survivor count (dose: 200.0 mg/kg/injection, schedule: Q04DX002 (ip), vehicle: saline): 0 of 3 (2×) and 2 of 3; survivor count [6]: 1 of 3; survivor count (dose: 400.0 mg/kg/injection, schedule: Q04DX002 (ip), vehicle: saline): 0 of 3

What does the source list for CN1C2CC(=O)CC1C1CCC2C1?
survivor count (dose: 60.0 mg/kg/injection, schedule: Q01DX001 (ip), vehicle: carboxymethylcellulose (CMC)): 2 of 6; survivor count (dose: 75.0 mg/kg/injection, schedule: Q01DX001 (ip), vehicle: carboxymethylcellulose (CMC)): 0 of 6; survivor count (dose: 150.0 mg/kg/injection, schedule: Q01DX001 (ip), vehicle: carboxymethylcellulose (CMC)): 0 of 6; survivor count (dose: 300.0 mg/kg/injection, schedule: Q01DX001 (ip), vehicle: carboxymethylcellulose (CMC)): 0 of 6

For COC(=O)c1cc([N+](=O)[O-])cc2ccccc12, which survivor count [5] is on record?
Its survivor count is 4 of 6.

Which results are given for Cc1c(NC(=O)Nc2ccc(C3=NCCCN3)cc2)cccc1NC(=O)Nc1ccc(C2=NCCCN2)cc1?
T/C (dose: 10.0 mg/kg/injection, schedule: Q01DX Z (ip), vehicle: water): 149 % of control; T/C (dose: 12.5 mg/kg/injection, schedule: Q01DX Z (ip), vehicle: water): 142 % of control
